Values joined by “and” are separate entries in the source; they are usually repeats but may differ in a detail not shown here. Identical values can stand only once. Screen size: about 580,000 compounds; about 6,100 (1.1%) were called active. Inconclusive results, whose numbers are uncertain, are shown with a selection of clear calls. Calls follow the shape of the dose curve; as a rule, active = well fitted inhibition curve with a large enough effect; inconclusive = small, poorly fitted or top-dose-only effect, or another doubt; inactive = no such curve, though single readings can be large or run the other way. Potencies of inconclusive entries are doubtful fits and often do not repeat.
Biological target: Polyunsaturated fatty acid lipoxygenase ALOX12 (Homo sapiens) (UniProt P18054)
Assay: Primary qHTS assay for inhibitors of human arachidonate 12S-lipoxygenase (ALOX12): Round 2
Settings: purified 12hLO, xylenol orange hydroperoxide absorbance; activity change, negative = inhibition: at 108 µM (top of the series) unless noted
Procedure, shortened: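 Purified human 12hLO at 150 nM in 25 mM Hepes, 0.01% Triton X-100, pH 7.0, preincubated 15 min at room temperature with compound. Reaction started with 40 uM arachidonic acid, 30 min at room temperature. Hydroperoxide measured by Fe-xylenol orange, 573/405 nm absorbance ratio.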
% is scaled to controls: 0 for no effect and ±100 for the full control effect; potency is read from the fitted curve at half-maximal effect.

Amino acid sequences for entries named in this document (tags omitted).
UniProt P18054, whole entry, looked up: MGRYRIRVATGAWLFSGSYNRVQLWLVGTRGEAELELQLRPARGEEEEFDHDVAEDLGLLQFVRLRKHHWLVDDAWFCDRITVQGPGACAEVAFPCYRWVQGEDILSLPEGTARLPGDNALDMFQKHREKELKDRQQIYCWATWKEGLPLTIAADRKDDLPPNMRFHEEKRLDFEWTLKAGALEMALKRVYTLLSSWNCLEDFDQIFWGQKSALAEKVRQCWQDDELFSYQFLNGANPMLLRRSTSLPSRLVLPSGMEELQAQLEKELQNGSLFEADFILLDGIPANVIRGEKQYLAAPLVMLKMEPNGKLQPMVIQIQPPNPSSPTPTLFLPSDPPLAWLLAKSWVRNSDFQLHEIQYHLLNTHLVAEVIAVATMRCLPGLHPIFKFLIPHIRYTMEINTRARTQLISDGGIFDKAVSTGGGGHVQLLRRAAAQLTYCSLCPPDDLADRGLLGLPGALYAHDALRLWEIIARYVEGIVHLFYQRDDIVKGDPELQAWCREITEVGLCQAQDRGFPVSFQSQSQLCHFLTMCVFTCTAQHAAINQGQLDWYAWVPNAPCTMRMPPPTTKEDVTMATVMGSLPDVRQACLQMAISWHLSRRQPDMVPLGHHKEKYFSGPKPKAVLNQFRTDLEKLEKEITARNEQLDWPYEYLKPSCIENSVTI

| SMILES | Potency | activity change, negative = inhibition |
| --- | --- | --- |
| COCCn1cnnc1SCc1cccc(C(F)(F)F)c1 | inconclusive: 12.6 µM [inhibitor, partial curve] | – |
| Cc1ccc(C(=O)Nc2ccc3oc(-c4ccncc4)nc3c2)cc1C | inconclusive: 35.5 µM [inhibitor, partial curve, poor fit] | – |
| CCCN(Cc1cc2cc(C)ccc2[nH]c1=O)C(=O)c1ccc(C(C)(C)C)cc1 | inconclusive: 100 µM [inhibitor, single point] | – |
| Cc1cc(C)cc(OCCNC(=O)C(C)N2C(=O)c3ccccc3C2=O)c1 (stereo unspecified) | inconclusive: 126 µM [inhibitor, single point] | – |
| O=C(c1ccncc1)N1CCC(c2nnc3n2CCNC3)CC1 | inconclusive: 6.31 µM [inhibitor, full curve, poor fit] | – |
| COc1ccc(-c2cc(C(=O)O)c3c(C)cc(C)cc3n2)cc1 | inconclusive: 39.8 µM [inhibitor, partial curve, poor fit] | – |
| CC1(C)CC2(C)OC(=O)OC2(C)c2ccccc21 (stereo unspecified) | inconclusive: 0.447 µM [inhibitor, full curve, poor fit] | – |
| O=C(NCC(c1cccs1)N1CCOCC1)c1cc(=O)c2cc(Br)ccc2o1 (stereo unspecified) | – | inactive: 0.743% |
| CC1(C)CC(=O)C(N=Nc2ccc3ncsc3c2)=C(O)C1 | – | inconclusive: -34.2% [inhibitor] |
| COc1ccc(-c2coc3c(C(=O)Nc4ccc(OC)nc4)cccc23)c(C)c1 | inconclusive: 8.91 µM [inhibitor, full curve, poor fit] | – |
| Cc1ccc(NC(=O)Cn2c(=O)c(-c3noc(C)n3)c3n(c2=O)CCCCC3)cc1 | inconclusive: 2.24 µM [inhibitor, full curve, poor fit] | – |
| Nc1nc(Nc2ccccc2F)nc(-c2cc3ccccc3o2)n1 | – | inactive: -27.6% |
| COc1ccc(C2(Nc3cccc(F)c3)C(=O)c3ccccc3C2=O)cc1 | – | inconclusive: -30.5% [inhibitor] |
| COc1ccccc1C1CCN(c2cc(O)ccc2[N+](=O)[O-])CC1 | inconclusive: 50.1 µM [inhibitor, partial curve, poor fit] | – |
| COCCNC(=O)C1CCN(C(=O)c2cc3sccc3n2Cc2ccc(Cl)cc2)CC1 | – | inactive: -15.2% |
| Cc1cc(C)cc(N2C(=O)CN(Cc3ccccc3)C2=S)c1 | – | inactive: -6.81% |
| O=C(Cn1ccc2c(Br)cccc21)N1CCCC1 | inconclusive: 35.5 µM [inhibitor, single point] | – |
| Cc1ccc(C(=O)NC(=S)NNC(=O)C2CC2)cc1 | inconclusive: 15.8 µM [inhibitor, full curve, poor fit] | – |
| O=C(NN=C1CCCC1)c1ccn[nH]1 | – | inactive: 25.1% |
| CN1c2ccc(C=O)c3c(C=O)ccc(c23)N(C)C1(C)C | active: 28.2 µM | – |
| Cc1ccc(Cn2nnc3c(=O)[nH]c(C4CCCN(C(=O)Nc5ccc(F)cc5F)C4)nc32)cc1 (stereo unspecified) | inconclusive: 100 µM [inhibitor, partial curve, poor fit] | – |
| CC(=O)c1ccc(N2CCCCCC2)c(F)c1 | inconclusive: 79.4 µM [inhibitor, single point] | – |

| SMILES | Potency | activity change, negative = inhibition |
| --- | --- | --- |
| COc1ccc(C2(C)NC(=O)N(CC(=O)Nc3ccc(-c4nc5ccc(C)cc5s4)cc3)C2=O)cc1 (stereo unspecified) | inconclusive: 0.199 µM [inhibitor, full curve, poor fit] | – |
| CCCCn1c(-c2sccc2C)n[nH]c1=S | active: 39.8 µM | – |
| COc1ccc(C(=O)N[C@@H]2CCC[C@@H]2C(=O)NCc2cccc(C)c2)cn1 | – | inactive: 35.3% |
| CCOc1ccccc1Nc1nc(N)c(C(=O)c2ccc(CC)cc2)s1 | – | inactive: -22.4% |
| O=C(NNC(=O)c1ccccc1F)c1ccc(-c2ccc(Cl)cc2)o1 | inconclusive: 89.1 µM [inhibitor, partial curve, poor fit] | – |
| COc1ccc([C@@H]2CC=C(C(=O)O)[C@H](c3ccc(Cl)cc3)N2S(=O)(=O)c2ccc(Cl)cc2)cc1 | inconclusive: 44.7 µM [inhibitor, partial curve, poor fit] | – |
| Cc1cccc(C)c1OC1CN(c2cc(C3CC(O)C3)nc(N)n2)C1 (stereo unspecified) | – | inactive: 60.1% |
| Cc1sc2nc(-c3cccnc3)nc(Cl)c2c1-c1ccccc1 | inconclusive: 44.7 µM [inhibitor, partial curve, poor fit] | – |
| CCCNS(=O)(=O)c1cc(-c2nn3c(C)nnc3c3ccccc23)ccc1C | inconclusive: 100 µM [inhibitor, partial curve, poor fit] | – |
| CC[C@H]1CN(C(=O)Nc2cccc(OC)c2)CC[C@H]1CC(=O)NCc1ccccc1 | inconclusive: 25.1 µM [inhibitor, full curve, poor fit] | – |
| Cc1ccc(CNC(=O)C2CCCN2S(=O)(=O)c2ccc(F)cc2)cc1 (stereo unspecified) | inconclusive: 2.82 µM [inhibitor, full curve, poor fit] | – |
| CC(=O)N1CC2(CCN(C(=O)CCC(=O)O)C2)Cc2ccccc21 (stereo unspecified) | – | inactive: 1.39% [at 6.33 µM] |
| O=c1c2c(nc(NCCO)n1CC1CCCCC1)-c1ccccc1CC21CCCC1 | inconclusive: 39.8 µM [inhibitor, partial curve, poor fit] | – |
| Cc1ccc(C(CNS(=O)(=O)c2ccc(F)cc2)N2CCN(C)CC2)cc1 (stereo unspecified) | inconclusive: 50.1 µM [inhibitor, partial curve, poor fit] | – |
| O=C(/C=C1\NC2(CCCC2)Cc2ccccc21)C(=O)N/N=C/c1ccc(O)c(O)c1 | active: 35.5 µM | – |
| N#Cc1ccc(CN2CCC(c3ccnn3CCO)CC2)c(F)c1 | – | inactive: 31.4% |
| Cc1ccn2c(C(=O)N3CCn4nc(CCC(=O)NC(C)C)cc4C3)nnc2n1 | – | inactive: 57.6% |
| CC1=C[C@@H](CNC(=O)c2ccc(C#N)cc2)[C@H](C(C)C)C[C@H]1CC(=O)NCCN(C)C | – | inactive: 12% [at 176 µM] |
| CC(C)N1CCC(CNC(=O)c2cc3ccccc3n2C)C1 (stereo unspecified) | inconclusive: 44.7 µM [inhibitor, full curve, poor fit] | – |
| CC1(C)C2CCC1(C)C(OC(=O)C[n+]1ccccc1N)C2 (stereo unspecified) | – | inactive: -0.867% |
| CCN(CC)c1ncnc2c1ncn2[C@H]1CN(Cc2ccc(OC)cc2)C[C@@H](CO)O1 | – | inactive: -3.4% |
| Cc1cc(C)c(OCCCCN(C)Cc2ccccc2)c(C)c1 | inconclusive: 0.251 µM [inhibitor, full curve, poor fit] | – |

| SMILES | Potency | activity change, negative = inhibition |
| --- | --- | --- |
| NC(=S)NN=C(Cc1ccccc1)Cc1ccccc1 | active: 11.2 µM | – |
| CCCCN(C)Cc1c(C)[nH]c2ccc(C)cc2c1=O | inconclusive: 100 µM [inhibitor, single point] | – |
| CCN(CC)CCCNC(=O)c1cc(-c2ccccc2)c(N2CCCCC2)s1 | inconclusive: 44.7 µM [inhibitor, partial curve, poor fit] | – |
| Cc1cc(=O)n(CC(=O)Nc2cccc(Cl)c2C)c(N2CCN(c3ccccc3)CC2)n1 | – | inactive: -10.4% |
| CCC1CCCCN1S(=O)(=O)c1ccc(NC(=O)c2nc(S(C)(=O)=O)ncc2Cl)cc1 (stereo unspecified) | inconclusive: 141 µM [inhibitor, single point] | – |
| O=S(=O)(c1ccc(Cl)cc1)n1cccn1 | inconclusive: 35.5 µM [inhibitor, partial curve, poor fit] | – |
| CCCS(=O)(=O)Nc1ccc(N2CCCCC2)c(S(=O)(=O)Nc2ccccc2OC)c1 | active: 31.6 µM | – |
| Cc1ccc(CNC(=O)c2nc(-c3nn(-c4ccc(F)cc4)c(=O)n(C)c3=O)no2)o1 | inconclusive: 14.1 µM [inhibitor, full curve, poor fit] | – |
| Brc1ccc2nc(C3CCCCC3)c(Cc3ccsc3)n2c1 | inconclusive: 44.7 µM [inhibitor, partial curve, poor fit] | – |
| CCOC(=O)c1ccc2nc(C)cc(Nc3ccc(OC)cc3)c2c1 | inconclusive: 79.4 µM [inhibitor, partial curve, poor fit] | – |
| Cc1ccc(C)c(OC(=O)c2cccc(S(=O)(=O)N3CCN(C)CC3)c2)c1 | inconclusive: 100 µM [inhibitor, partial curve, poor fit] | – |
| C=CCn1c(N2CCN(Cc3cccc4ccccc34)CC2)nc2c1c(=O)[nH]c(=O)n2C | inconclusive: 50.1 µM [inhibitor, partial curve, poor fit] | – |
| CC(C)(C)c1cc(C=NCc2ccccc2)cc(C(C)(C)C)c1O | inconclusive: 126 µM [inhibitor, partial curve, poor fit] | – |
| COc1cc(CN(C(=S)NCC(=O)NCc2ccc(Cl)cc2)C2CCCC2)cc(OC)c1OC | inconclusive: 112 µM [inhibitor, single point] | – |
| Nc1ccc2c(c1)C(=O)OC2 | inconclusive: 8.91 µM [inhibitor, partial curve, poor fit] | – |
| O=C1CSc2ccc(C(=O)Nc3ccc4c(c3)OCCO4)cc2N1 | inconclusive: 31.6 µM [inhibitor, partial curve, poor fit] | – |
| Cc1nc(N2CCC(C)CC2)c2c(C)c(C(=O)O)sc2n1 | inconclusive: 15.8 µM [inhibitor, partial curve] | – |
| CCCCOc1ccc(C(O)C(CN2CCCCC2)c2ccccc2)cc1 (stereo unspecified) | inconclusive: 15.8 µM [inhibitor, partial curve] | – |
| Cc1cccc(/C=C/C(=O)N(Cc2ccco2)C2CC2)c1 | inconclusive: 31.6 µM [inhibitor, partial curve] | – |
| COc1c(F)c(F)cc2c(=O)c(C(=O)O)cn(C3CC3)c12 | inconclusive: 35.5 µM [inhibitor, partial curve, poor fit] | – |
| CCSc1ncc(Cl)c(C(=O)Nc2nnc(CC)s2)n1 | inconclusive: 100 µM [inhibitor, partial curve, poor fit] | – |
| Clc1ccccc1-c1ccc2ncnc(NCc3cccnc3)c2c1 | inconclusive: 8.91 µM [inhibitor, full curve, poor fit] and inconclusive: 126 µM [inhibitor, partial curve, poor fit] | – |
